Data reported in publication doi:10.1101/2023.06.27.545208.
No constants are given. Whether binding was seen depends on the method and setting. In cells and extracts the contact can be indirect. Some results given as binding are weak or reduced against the parent protein; the word gives no strength. Where a sequence is shown, tags or fusion partners need not be part of it.

Molecular target: T1, epitope-tagged CTDNEP1 (human) (UniProt O95476)
T1 sequence: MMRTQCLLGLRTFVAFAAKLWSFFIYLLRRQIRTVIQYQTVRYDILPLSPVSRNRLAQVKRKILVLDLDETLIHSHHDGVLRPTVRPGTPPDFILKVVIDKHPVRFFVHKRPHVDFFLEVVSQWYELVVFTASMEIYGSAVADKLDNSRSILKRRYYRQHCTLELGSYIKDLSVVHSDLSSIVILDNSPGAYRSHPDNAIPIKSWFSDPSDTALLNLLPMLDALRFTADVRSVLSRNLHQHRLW
Assay: co-IP

binding: binds
B1: epitope-tagged TMEM255A (protein, UniProt Q5JRV8 1-349)
chain: MHQSLTQQRSSDMSLPDSMGAFNRRKRNSIYVTVTLLIVSVLILTVGLAATTRTQNVTVGGYYPGVILGFGSFLGIIGSNLIENKRQMLVASIVFISFGVIAAFCCAIVDGVFAARHIDLKPLYANRCHYVPKTSQKEAEEVISSSTKNSPSTRVMRNLTQAAREVNCPHLSREFCTPRIRGNTCFCCDLYNCGNRVEITGGYYEYIDVSSCQDIIHLYHLLWSATILNIVGLFLGIITAAVLGGFKDMNPTLPALNCSVENTHPTVSYYAHPQVASYNTYYHSPPHLPPYSAYDFQHSGVFPSSPPSGLSDEPQSASPSPSYMWSSSAPPRYSPPYYPPFEKPPPYSP
